# Measured values reported in the supplement of paper PMC12889115.
# The other results are listed elsewhere or left out. These are raw signals, not scaled to a control.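 Primary screen: polymyxin B was added at a level permeabilizing Salmonella outer membranes while sparing inner membranes. DMSO wells, both with and without polymyxin B, established maximum growth. Plate-to-plate variation meant each plate was ranked on its own, and the lowest-OD600 compounds were selected as hits.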
# Test system: Salmonella enterica serovar Typhimurium SL1344
# Test: bacterial growth OD600 after 18 h with compound and polymyxin B; higher = more bacterial growth (less inhibition)
# Conditions: 50 µM, Mueller-Hinton broth
Compound,bacterial growth OD600 (polymyxin B 1 µg/mL),bacterial growth OD600 (polymyxin B 0.75 µg/mL)
O=C(NCc1c(F)cccc1F)c1ccc(OC2CCN(C(=O)C3CC3)CC2)cc1,0.826,
COc1ccc(CC2(CCC(=O)N(C)Cc3csc(-c4cccs4)n3)CCC(=O)N2)c(F)c1 (centres undefined),,0.609
O=C(C1=CCCCC1)N1CCCC(CO)(CCCc2ccccc2)C1 (centres undefined),0.715,
Cc1ccc(CNC2CCCc3nc(-c4ccccc4)ncc32)o1 (centres undefined),,0.739
COc1ccc(CC2(CCC(=O)N3CCN(c4cc(Cl)ccc4C)CC3)CCC(=O)N2)c(F)c1 (centres undefined),,0.004
Cc1nc(N2CCCC(NCc3ccccc3F)CC2)nc2ccc(F)cc12 (centres undefined),,0.656
O=C(c1ccc2nc(C3CCCCC3)oc2c1)N1CCC(N2CCSCC2)CC1,0.817,
C[C@@H]1CN(C2(C(=O)N[C@H]3CCCCNC3=O)Cc3ccccc3C2)C[C@H](C)O1,0.872,
CCOC(=O)C1(Cc2ccc(F)cc2F)CCCN(C(=O)CNC(C)=O)C1 (centres undefined),0.937,
